PubChem BioAssay AID1259425 | University of Nebraska Medical Center, 2018

- Assay: 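Find knockdowns that reproduce the gene expression pattern seen when KSR1 is lost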 (primary screen)
- System: HCT116 human colon cancer cells
- Reagent: siRNA pool against human genes, 50 nM siRNA
- Read-out: 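After 50 nM siRNA pool, branched-DNA assay measures six marker transcripts per well, minus blank, normalised to the geometric mean of two housekeeping transcripts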
- Reading the numbers: BNIP3L mRNA: higher = more BNIP3L transcript after knockdown
The whole screen tested about 14,000 reagents; shown is an unselected part. Further read-outs or replicates are left out here. Reagent sequences are not shown. The record does not give: the time to read-out.

STX17 (syntaxin 17): BNIP3L mRNA, set 1 = 0.0876
GARNL3 (GTPase activating Rap/RanGAP domain like 3): BNIP3L mRNA, set 1 = 0.287
ZDHHC8 (zDHHC palmitoyltransferase 8): BNIP3L mRNA, set 1 = 0.268
MN1 (MN1 proto-oncogene, transcriptional regulator): BNIP3L mRNA, set 1 = 0.0951
TNFAIP8 (TNF alpha induced protein 8): BNIP3L mRNA, set 1 = 0.042
ZNF232 (zinc finger protein 232): BNIP3L mRNA, set 1 = 0.291
SMC6 (structural maintenance of chromosomes 6): BNIP3L mRNA, set 1 = 0.194
EYA2 (EYA transcriptional coactivator and phosphatase 2): BNIP3L mRNA, set 1 = 0.148
ZNF606 (zinc finger protein 606): BNIP3L mRNA, set 1 = 0.137
REEP1 (receptor accessory protein 1): BNIP3L mRNA, set 1 = 0.175
ZRSR2: BNIP3L mRNA, set 1 = 0.107
NSA2 (NSA2 ribosome biogenesis factor): BNIP3L mRNA, set 1 = 0.101

Entries listed so far whose target name begins with S or s (2):
STX17 (syntaxin 17): BNIP3L mRNA, set 1 = 0.0876
SMC6 (structural maintenance of chromosomes 6): BNIP3L mRNA, set 1 = 0.194

Further results follow:
DLGAP1 (DLG associated protein 1): BNIP3L mRNA, set 1 = 0.109
POLR2K (RNA polymerase II, I and III subunit K): BNIP3L mRNA, set 1 = 0.0908
MGAT3: BNIP3L mRNA, set 1 = 0.0473
FAM167A-AS1 (FAM167A antisense RNA 1): BNIP3L mRNA, set 1 = 0.374
HBE1 (hemoglobin subunit epsilon 1): BNIP3L mRNA, set 1 = 0.0301
CCND1 (cyclin D1): BNIP3L mRNA, set 1 = 0.272
ZNF430 (zinc finger protein 430): BNIP3L mRNA, set 1 = 0.128
SNX1 (sorting nexin 1): BNIP3L mRNA, set 1 = 0.11
DGKB (diacylglycerol kinase beta): BNIP3L mRNA, set 1 = 0.164
SPHK2 (sphingosine kinase 2): BNIP3L mRNA, set 1 = 0.171
DMAC2L (distal membrane arm assembly component 2 like): BNIP3L mRNA, set 1 = 0.0735
SLC2A10: BNIP3L mRNA, set 1 = 0.0807
MTREX (Mtr4 exosome RNA helicase): BNIP3L mRNA, set 1 = 0.0639
APOC4 (apolipoprotein C4): BNIP3L mRNA, set 1 = 0.0693
MRPL4 (mitochondrial ribosomal protein L4): BNIP3L mRNA, set 1 = 0.215
SLC1A5: BNIP3L mRNA, set 1 = 0.158
